{"source": "PubChem BioAssay AID540276", "about": "(National Center for Advancing Translational Sciences (NCATS), 2011)", "note": "Out of some 300,000 compounds screened, about 5,400 (1.8%) were called active. The shares of active, inactive and inconclusive entries below differ from those in the screen. Calls come from the whole dose curve; tested in HEK293 cells. Where the call is inconclusive, the potency comes from a doubtful curve fit. Potency is the fitted concentration of half-maximal effect."}
{"experiment": "qHTS for inhibitors of binding or entry into cells for Marburg Virus", "settings": "Marburg virus pseudotyped entry inhibition, cell reporter; series mostly up to 37.8 µM"}
{"smiles": "O=C(CCCc1ccccc1)c1ccc2c(c1)OCCO2", "Potency": "active: 0.461 µM"}
{"smiles": "Cc1ccc(N2CC(c3nnc(NC(=O)c4ccco4)s3)CC2=O)cc1C", "note": "(stereo not drawn)", "Potency": "inactive"}
{"smiles": "CN(C)CC(CCC(CN(C)C)C(O)(c1ccccc1)c1ccccc1)C(O)(c1ccccc1)c1ccccc1", "note": "(stereo not drawn)", "Potency": "inconclusive: 5.62 µM [inhibitor, full curve, poor fit]"}
{"smiles": "COCCCN1C(=O)c2[nH]nc(-c3cc(C)cc(C)c3O)c2C1c1ccc(O)c(OC)c1", "note": "(stereo not drawn)", "Potency": "inconclusive: 16.4 µM [inhibitor, single point]"}
{"smiles": "CCc1ccc(Nc2ncc3c(n2)CC(C)(C)CC3=O)cc1", "Potency": "inconclusive: 5.62 µM [activator, single point]"}
{"smiles": "CC(C)CCNC(=S)Nc1ccc([N+](=O)[O-])cc1", "Potency": "inconclusive: 0.562 µM [inhibitor, full curve, poor fit]"}
{"smiles": "CCOC(=O)c1c(CN2CCCCC2)n(C)c2cc(Br)c(O)cc12", "Potency": "inconclusive: 32.6 µM [inhibitor, single point]"}
{"smiles": "COc1ccccc1C(CC(=O)c1ccccc1)CC(=O)c1ccccc1", "Potency": "inconclusive: 14.1 µM [inhibitor, single point]"}
{"smiles": "COc1ccc(NC(=O)NCCCCc2ccccc2)cc1OC", "Potency": "inconclusive: 5.62 µM [activator, single point]"}
{"smiles": "COc1ccc(NC(=O)Nc2nnc(N3CCCCCC3)s2)c(OC)c1", "Potency": "inconclusive: 2.82 µM [inhibitor, single point]"}
{"smiles": "CCOC(=O)N1CCC(=NNc2nc3ccccc3s2)CC1", "Potency": "inactive"}
{"smiles": "CCC(C(=O)OCC(=O)Nc1cc(Cl)ccc1Cl)c1ccccc1", "note": "(stereo not drawn)", "Potency": "inconclusive: 3.55 µM [activator, single point]"}
{"smiles": "Cn1nnnc1Sc1c(Cl)cccc1[N+](=O)[O-]", "Potency": "inactive"}
{"smiles": "Cc1ccc(CNC(=O)c2ccc(F)c(S(=O)(=O)N3CCOCC3)c2)cc1", "Potency": "inconclusive: 1.26 µM [inhibitor, single point]"}
{"smiles": "Fc1ccccc1CNc1cc(Cl)cc(Cl)c1", "Potency": "inconclusive: 2.31 µM [inhibitor, partial curve, poor fit]"}
{"smiles": "COc1ccccc1C(CNC(=O)C(CCSC)NC(=O)c1ccccc1Cl)N1CCCC1", "note": "(stereo not drawn)", "Potency": "active: 2.82 µM"}
{"smiles": "CCN1CCN(CCNC(=O)c2ccc(/C=C3/Sc4ccccc4N(Cc4cccc(Cl)c4)C3=O)cc2)CC1", "Potency": "inconclusive: 7.94 µM [inhibitor, partial curve, poor fit]"}
{"smiles": "O=C(CN1C(=O)C2CC=CCC2C1=O)N1CCN(c2ccc([N+](=O)[O-])cc2)CC1", "note": "(stereo not drawn)", "Potency": "inconclusive: 20 µM [inhibitor, single point]"}
{"smiles": "COc1cccc(N(CC(=O)Nc2cccnc2)S(C)(=O)=O)c1", "Potency": "inconclusive: 1.12 µM [inhibitor, full curve, poor fit]"}
{"smiles": "O=C(NC1CCN(Cc2ccc3ccccc3c2)CC1)c1ccccc1", "Potency": "inconclusive: 22.4 µM [inhibitor, single point]"}
{"smiles": "Cc1ccc(SCC(=O)OCC(=O)N(C)CC(=O)Nc2ccc(F)cc2)cc1C", "Potency": "inconclusive: 0.112 µM [inhibitor, full curve, poor fit]"}
{"smiles": "Cc1occc1-c1nnc(SCC(=O)Nc2ccccc2)n1Cc1ccccc1", "Potency": "inconclusive: 2.91 µM [inhibitor, partial curve]"}
{"smiles": "O=C(c1ccc(COc2c(F)c(F)c(F)c(F)c2F)o1)N1CCOCC1", "Potency": "inactive"}
{"smiles": "NC(=NCCC[C@H](N)C(=O)O)N[N+](=O)[O-]", "Potency": "inconclusive: 12.6 µM [activator, single point]"}
{"smiles": "O=C(NCC1COc2ccccc2O1)c1cccc(S(=O)(=O)NCc2ccccc2)c1", "note": "(stereo not drawn)", "Potency": "inconclusive: 2.51 µM [activator, single point]"}
{"smiles": "CC(C)CN1CCN(Cc2ccc(CN3CCCCC3)s2)CC1CCO", "note": "(stereo not drawn)", "Potency": "inconclusive: 7.94 µM [inhibitor, partial curve, poor fit]"}
{"smiles": "Cc1ccccc1C(=O)Oc1ccccc1C(=O)N1CCOCC1", "Potency": "inactive"}
{"smiles": "CCOCCCNC(=O)c1cc(Nc2ccc(OC)cc2OC)nc2ccccc12", "Potency": "inconclusive: 20 µM [inhibitor, single point]"}
{"smiles": "CC(C)(C)c1nn(-c2ccccc2)c2[nH]c(=O)c(CNCc3ccc4c(c3)OCO4)cc12", "Potency": "inconclusive: 18.3 µM [inhibitor, partial curve, poor fit]"}
{"smiles": "Cc1cccc(-c2nc(C#N)c(NCC3CCCO3)o2)c1", "note": "(stereo not drawn)", "Potency": "inactive"}
{"smiles": "COCCN1C(=O)c2cc(C(=O)Nc3ccc(C)c(F)c3)ccc2C1Nc1ccc(C)c(F)c1", "note": "(stereo not drawn)", "Potency": "inactive"}
{"smiles": "CCOc1cc(S(=O)(=O)N(Cc2ccccc2)Cc2ccccc2)c(OCC)cc1-n1cnnn1", "Potency": "active: 20.6 µM"}
{"smiles": "O=C(COC(=O)c1cccnc1SCC(=O)NCc1ccccc1)NCc1ccccc1", "Potency": "inactive"}
{"smiles": "CCN1C(=O)S/C(=C/c2c(OCc3ccc(C(=O)O)cc3)ccc3ccccc23)C1=O", "Potency": "inactive"}
{"smiles": "COc1cnc(-c2ccccn2)nc1Sc1c(Cl)cccc1Cl", "Potency": "inconclusive: 16.4 µM [inhibitor, single point]"}
{"smiles": "COc1ccc(NC(=O)CSc2cc(C(=O)c3nccn3C)c3ccccc3n2)cc1", "Potency": "inconclusive: 6.31 µM [inhibitor, partial curve, poor fit]"}
{"smiles": "CCC(Oc1ccccc1)C(=O)Nc1ccc(C)c(S(=O)(=O)N2CCOCC2)c1", "note": "(stereo not drawn)", "Potency": "inconclusive: 6.31 µM [inhibitor, single point]"}
{"smiles": "Cc1c(C(=O)Nc2ccccc2)csc1-c1ccccc1", "Potency": "inconclusive: 12.6 µM [inhibitor, single point]"}
{"smiles": "COc1ccccc1CN(Cc1nc2ccccc2c(=O)[nH]1)C(=O)Nc1cccc(C)c1", "Potency": "inconclusive: 2.06 µM [inhibitor, partial curve]"}
{"smiles": "CCC(=O)Nc1ccc2ccccc2c1", "Potency": "inconclusive: 5.01 µM [activator, partial curve, poor fit]"}
{"smiles": "Cc1c(NS(C)(=O)=O)cccc1-c1nc2ccccc2s1", "Potency": "inactive"}
{"smiles": "O=C(CCl)Nc1ccc(Oc2cnc3ccccc3n2)cc1", "Potency": "inconclusive: 29.1 µM [inhibitor, single point]"}
{"smiles": "Cc1ccc(C)c(CN2C(=O)c3ccccc3S(=O)c3ccc(C(=O)NCCc4ccc(Cl)cc4)cc32)c1", "note": "(stereo not drawn)", "Potency": "inconclusive: 35.5 µM [inhibitor, single point]"}
{"smiles": "CCCC(=O)NC(=S)N1CCN(c2ccc([N+](=O)[O-])cc2)CC1", "Potency": "inconclusive: 0.282 µM [inhibitor, full curve]"}
{"smiles": "CCN(CC)c1ccc(/C=N/NC(=O)CN2CCCc3ccccc32)cc1", "Potency": "inactive"}
{"smiles": "COc1ccc(CCCc2nnc(SCC(=O)Nc3nc(C)cs3)n2C)cc1", "Potency": "inactive"}
{"smiles": "Cc1ccc(/C=N/NC(=O)CN2C(=O)CSc3ccccc32)o1", "Potency": "inactive"}
{"smiles": "Cc1ccc(N2C(=N)SCC2=O)cc1Cl", "Potency": "inactive"}
{"smiles": "Cc1cccc(NC(=O)c2ccc(NCC3CCCO3)c([N+](=O)[O-])c2)n1", "note": "(stereo not drawn)", "Potency": "inactive"}
{"smiles": "COc1ccc(CC(C)NCCc2ccc(OC)c(OC)c2)cc1", "note": "(stereo not drawn)", "Potency": "inconclusive: 15.8 µM [inhibitor, single point]"}
{"smiles": "COc1ccc(C(=O)N2CCC(c3c[nH]c4ccccc34)(c3c[nH]c4ccccc34)CC2)cc1", "Potency": "inconclusive: 10 µM [inhibitor, single point]"}
{"smiles": "CCOC(=O)c1nn(-c2ccc3c(c2)CCN3C(C)=O)cc1O", "Potency": "inconclusive: 9.2 µM [inhibitor, partial curve, poor fit]"}
{"smiles": "COC(=O)c1ccccc1NC(=O)C(=O)NCC1CCCO1", "note": "(stereo not drawn)", "Potency": "inconclusive: 22.4 µM [activator, single point]"}
{"smiles": "O=C(CCNC(=O)c1ccccc1Cl)Nc1nc(-c2ccc3ccccc3c2)cs1", "Potency": "inconclusive: 29.1 µM [inhibitor, single point]"}
{"smiles": "CC1=CCC2C(=O)N(c3ccccc3OC(=O)c3ccccc3F)C(=O)C2C1", "note": "(stereo not drawn)", "Potency": "inconclusive: 29.1 µM [activator, single point]"}
{"smiles": "CCn1c(SCC(=O)Nc2cc(F)ccc2C)nnc1-c1ccccc1O", "Potency": "inactive"}
{"smiles": "CC(Oc1ccc(Cl)cc1Cl)c1nc(-c2ccc(NC(=O)c3ccncc3)cc2)no1", "note": "(stereo not drawn)", "Potency": "inconclusive: 25.9 µM [inhibitor, partial curve, poor fit]"}
{"smiles": "CC(C)=CCC/C(C)=C/CO/N=C1/C[C@@H](O)[C@@H](O)[C@@H]2[C@H]3C(=O)N(c4ccc(F)cc4F)C(=O)[C@@H]3CC[C@@H]12", "Potency": "inconclusive: 0.299 µM [inhibitor, partial curve, poor fit]"}
{"smiles": "CC/C(CC(c1ccccc1)c1c(O)c2ccccc2oc1=O)=N\\NC(N)=S", "note": "(stereo not drawn)", "Potency": "inconclusive: 1.3 µM [inhibitor, partial curve, poor fit]"}
{"smiles": "CC(C)c1ccc(OCC(=O)NNC(=S)NC(=O)C2CC2)cc1", "Potency": "inconclusive: 35.5 µM [inhibitor, single point]"}
{"smiles": "CCOc1ccc(-n2nnc3c(=O)n(CC(=O)N4CCCc5ccccc54)cnc32)cc1", "Potency": "inactive"}
{"smiles": "O=C1NC(=S)NC1=Cc1ccccc1O", "Potency": "inactive"}
{"smiles": "CCCn1c(C)cc(/C=C(\\C#N)C(=O)OCC(=O)Nc2cc(OC)c(OC)c(OC)c2)c1C", "Potency": "inconclusive: 0.631 µM [activator, full curve, poor fit]"}
{"smiles": "COc1ccccc1-c1cc(C(F)(F)F)nc(S(=O)(=O)CCCC(=O)Nc2ccc(F)c(Cl)c2)n1", "Potency": "inactive"}
{"smiles": "COc1cccc2[nH]c3c(N4CCC(C)CC4)ncnc3c12", "Potency": "inactive"}
{"smiles": "CC1(C)C2CCC1(C)C(NC(=O)/C=C/c1ccccc1)C2", "note": "(stereo not drawn)", "Potency": "inconclusive: 35.5 µM [inhibitor, single point]"}
{"smiles": "CCOc1ccc2nc(N(CCN(C)C)C(=O)c3ccc4ccccc4c3)sc2c1", "Potency": "inactive"}
{"smiles": "Cc1ccccc1NC(=O)CSc1nnc(NC(=O)C2CC2)s1", "Potency": "inconclusive: 25.1 µM [inhibitor, single point]"}
